# Measurements from the supplement of paper PMC8728848.
# Some of the results follow.
# B1: Layilin (Mus musculus), Q8C351 (protein)
# chain: MQPGAALQAMLLAVLLAKPRDSKGRLLSASDLDPRGGQLVCRGGTRRPCYKVIYFHDAFQRLNFEEAKETCMEDGGQLVSIETEDEQRLIEKFIENLLASDGDFWIGLKRLEEKQSNNTACQDLYAWTDGSTSQFRNWYVDEPSCGSEVCVVMYHQPSAPPGIGGSYMFQWNDDRCNMKNNFICKYHDDKPSTTPSIWPGGEATEPATPLLPEETQKEDTKETFKERREAALNLAYILIPSIPLFLLLVVTSAVCWVWICRRKREQTDPSTKEQHTIWPTPRQENSPNLDVYNVIRKQSEADLAEPRPDLKNISFRVCSGEAMPDDMSCDYENIAVNPSESGFVTLASMESGFVTNDIYEFSPDRMGRSKESGWVENEIYY
# Columns and labels:
# Test in all cases: glycan array binding signal (z-score within array); higher = stronger binding
# Conditions in all cases: glycan notation: IUPAC condensed, linker removed
# Fuc(a1-2)Gal = molecular target: Fuc(a1-2)Gal
# Method in brief: (§1)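 The binding signal is a Z-score computed within each array. Data were drawn from 3228 arrays in the Consortium for Functional Glycomics database, restricted to those with a known protein sequence. Scores were averaged over arrays of the same protein sequence at different concentrations or buffers, and over linkers, and negative values can be taken as non-binding.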
# Fuc(a1-2)Gal(b1-3)GalNAc = molecular target: Fuc(a1-2)Gal(b1-3)GalNAc
# Method in brief: as §1
# [1] = molecular target: Fuc(a1-2)Gal(b1-3)GalNAc(a1-3)[Fuc(a1-2)]Gal(b1-4)Glc
# Method in brief: as §1
# [2] = molecular target: Fuc(a1-2)Gal(b1-3)GalNAc(a1-3)[Fuc(a1-2)]Gal(b1-4)GlcNAc
# Method in brief: as §1
# [3] = molecular target: Fuc(a1-2)Gal(b1-3)GalNAc(b1-3)Gal
# Method in brief: as §1
# [4] = molecular target: Fuc(a1-2)Gal(b1-3)GalNAc(b1-3)Gal(a1-4)Gal(b1-4)Glc
# Method in brief: as §1
# [5] = molecular target: Fuc(a1-2)Gal(b1-3)GalNAc(b1-4)[Neu5Ac(a2-3)]Gal(b1-4)Glc
# Method in brief: as §1
# Fuc(a1-2)Gal(b1-3)GlcNAc = molecular target: Fuc(a1-2)Gal(b1-3)GlcNAc
# Method in brief: as §1
# [6] = molecular target: Fuc(a1-2)Gal(b1-3)GlcNAc(b1-2)Man(a1-3)[Fuc(a1-2)Gal(b1-3)GlcNAc(b1-2)Man(a1-6)]Man(b1-4)GlcNAc(b1-4)GlcNAc
# Method in brief: as §1
# [7] = molecular target: Fuc(a1-2)Gal(b1-3)GlcNAc(b1-2)Man(a1-3)[Fuc(a1-2)Gal(b1-3)GlcNAc(b1-2)Man(a1-6)]Man(b1-4)GlcNAc(b1-4)[Fuc(a1-6)]GlcNAc
# Method in brief: as §1
# [8] = molecular target: Fuc(a1-2)Gal(b1-3)GlcNAc(b1-3)Gal(b1-4)Glc
# Method in brief: as §1
# [9] = molecular target: Fuc(a1-2)Gal(b1-3)GlcNAc(b1-3)GalNAc
# Method in brief: as §1
# [10] = molecular target: Fuc(a1-2)Gal(b1-3)GlcNAc(b1-3)[Fuc(a1-3)[Gal(b1-4)]GlcNAc(b1-6)]Gal(b1-4)Glc
# Method in brief: as §1
# [11] = molecular target: Fuc(a1-2)Gal(b1-3)GlcNAc(b1-3)[Gal(b1-4)GlcNAc(b1-6)]Gal(b1-4)Glc
# Method in brief: as §1
# [12] = molecular target: Fuc(a1-2)Gal(b1-3)GlcNAc(b1-3)[Neu5Ac(a2-6)Gal(b1-4)GlcNAc(b1-6)]Gal(b1-4)Glc
# Method in brief: as §1
# [13] = molecular target: Fuc(a1-2)Gal(b1-3)[Fuc(a1-4)]GlcNAc
# Method in brief: as §1
# [14] = molecular target: Fuc(a1-2)Gal(b1-3)[Fuc(a1-4)]GlcNAc(b1-2)Man(a1-3)[Fuc(a1-2)Gal(b1-3)[Fuc(a1-4)]GlcNAc(b1-2)Man(a1-6)]Man(b1-4)GlcNAc(b1-4)GlcNAc
# Method in brief: as §1
# [15] = molecular target: Fuc(a1-2)Gal(b1-3)[Fuc(a1-4)]GlcNAc(b1-3)[Fuc(a1-3)[Gal(b1-4)]GlcNAc(b1-6)]Gal(b1-4)Glc
# Method in brief: as §1
# [16] = molecular target: Fuc(a1-2)Gal(b1-3)[Fuc(a1-4)]GlcNAc(b1-3)[Gal(b1-4)GlcNAc(b1-6)]Gal(b1-4)Glc
# Method in brief: as §1
# Fuc(a1-2)Gal(b1-4)Glc = molecular target: Fuc(a1-2)Gal(b1-4)Glc
# Method in brief: as §1
# Fuc(a1-2)Gal(b1-4)Glc6S = molecular target: Fuc(a1-2)Gal(b1-4)Glc6S
# Method in brief: as §1
# Fuc(a1-2)Gal(b1-4)GlcNAc = molecular target: Fuc(a1-2)Gal(b1-4)GlcNAc
# Method in brief: as §1
# [17] = molecular target: Fuc(a1-2)Gal(b1-4)GlcNAc(b1-2)Man(a1-3)[Fuc(a1-2)Gal(b1-4)GlcNAc(b1-2)Man(a1-6)]Man(b1-4)GlcNAc(b1-4)GlcNAc
# Method in brief: as §1
# [18] = molecular target: Fuc(a1-2)Gal(b1-4)GlcNAc(b1-2)Man(a1-3)[Fuc(a1-2)Gal(b1-4)GlcNAc(b1-2)Man(a1-6)]Man(b1-4)GlcNAc(b1-4)[Fuc(a1-6)]GlcNAc
# Method in brief: as §1
# [19] = molecular target: Fuc(a1-2)Gal(b1-4)GlcNAc(b1-2)[Fuc(a1-2)Gal(b1-4)GlcNAc(b1-4)]Man(a1-3)[Fuc(a1-2)Gal(b1-4)GlcNAc(b1-2)Man(a1-6)]Man(b1-4)GlcNAc(b1-4)GlcNAc
# Method in brief: as §1
# [20] = molecular target: Fuc(a1-2)Gal(b1-4)GlcNAc(b1-3)Gal(b1-4)GlcNAc
# Method in brief: as §1
# [21] = molecular target: Fuc(a1-2)Gal(b1-4)GlcNAc(b1-3)Gal(b1-4)GlcNAc(b1-3)Gal(b1-4)GlcNAc
# Method in brief: as §1
# [22] = molecular target: Fuc(a1-2)Gal(b1-4)GlcNAc(b1-3)GalNAc
# Method in brief: as §1
# [23] = molecular target: Fuc(a1-2)Gal(b1-4)GlcNAc(b1-3)[Fuc(a1-2)Gal(b1-4)GlcNAc(b1-6)]GalNAc
# Method in brief: as §1
# [24] = molecular target: Fuc(a1-2)Gal(b1-4)GlcNAc6S
# Method in brief: as §1
binder,measurement,setting,value
B1,glycan array binding signal (z-score),Fuc(a1-2)Gal,-0.301
same,glycan array binding signal (z-score),Fuc(a1-2)Gal(b1-3)GalNAc,0.577
same,glycan array binding signal (z-score),[1],-0.074
same,glycan array binding signal (z-score),[2],0.776
same,glycan array binding signal (z-score),[3],0.197
same,glycan array binding signal (z-score),[4],0.113
same,glycan array binding signal (z-score),[5],-0.101
same,glycan array binding signal (z-score),Fuc(a1-2)Gal(b1-3)GlcNAc,0.69
same,glycan array binding signal (z-score),[6],0.094
same,glycan array binding signal (z-score),[7],0.439
same,glycan array binding signal (z-score),[8],-0.956
same,glycan array binding signal (z-score),[9],-0.519
same,glycan array binding signal (z-score),[10],-0.407
same,glycan array binding signal (z-score),[11],0.69
same,glycan array binding signal (z-score),[12],-0.723
same,glycan array binding signal (z-score),[13],-0.947
same,glycan array binding signal (z-score),[14],0.431
same,glycan array binding signal (z-score),[15],-0.783
same,glycan array binding signal (z-score),[16],0.053
same,glycan array binding signal (z-score),Fuc(a1-2)Gal(b1-4)Glc,0.001
same,glycan array binding signal (z-score),Fuc(a1-2)Gal(b1-4)Glc6S,-0.382
same,glycan array binding signal (z-score),Fuc(a1-2)Gal(b1-4)GlcNAc,-0.44
same,glycan array binding signal (z-score),[17],-0.025
same,glycan array binding signal (z-score),[18],0.674
same,glycan array binding signal (z-score),[19],0.284
same,glycan array binding signal (z-score),[20],-0.443
same,glycan array binding signal (z-score),[21],-0.05
same,glycan array binding signal (z-score),[22],0.468
same,glycan array binding signal (z-score),[23],-0.862
same,glycan array binding signal (z-score),[24],-0.891

# Random excerpt: two records from the list, in no set order.
binder,measurement,setting,value
B1,glycan array binding signal (z-score),[14],0.431
same,glycan array binding signal (z-score),Fuc(a1-2)Gal(b1-4)Glc6S,-0.382
